The values that follow come from publication PMC3682539.

Protein sequences, listed by entry. Tags and fused reporters are not part of them.
UniProt P39705: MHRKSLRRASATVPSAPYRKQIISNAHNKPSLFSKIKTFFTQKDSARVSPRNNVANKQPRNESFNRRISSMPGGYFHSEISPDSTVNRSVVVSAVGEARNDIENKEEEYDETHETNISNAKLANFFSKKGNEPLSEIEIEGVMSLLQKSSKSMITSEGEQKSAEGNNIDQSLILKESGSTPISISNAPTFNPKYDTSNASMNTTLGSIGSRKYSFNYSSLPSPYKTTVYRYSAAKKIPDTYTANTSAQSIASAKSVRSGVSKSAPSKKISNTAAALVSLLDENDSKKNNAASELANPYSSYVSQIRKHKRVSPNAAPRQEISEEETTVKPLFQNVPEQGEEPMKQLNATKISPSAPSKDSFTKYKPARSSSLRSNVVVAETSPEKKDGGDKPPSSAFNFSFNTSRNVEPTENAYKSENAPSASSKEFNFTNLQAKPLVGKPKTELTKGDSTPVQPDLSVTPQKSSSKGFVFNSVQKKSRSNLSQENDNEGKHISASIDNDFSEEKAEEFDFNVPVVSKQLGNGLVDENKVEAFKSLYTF
UniProt P32499: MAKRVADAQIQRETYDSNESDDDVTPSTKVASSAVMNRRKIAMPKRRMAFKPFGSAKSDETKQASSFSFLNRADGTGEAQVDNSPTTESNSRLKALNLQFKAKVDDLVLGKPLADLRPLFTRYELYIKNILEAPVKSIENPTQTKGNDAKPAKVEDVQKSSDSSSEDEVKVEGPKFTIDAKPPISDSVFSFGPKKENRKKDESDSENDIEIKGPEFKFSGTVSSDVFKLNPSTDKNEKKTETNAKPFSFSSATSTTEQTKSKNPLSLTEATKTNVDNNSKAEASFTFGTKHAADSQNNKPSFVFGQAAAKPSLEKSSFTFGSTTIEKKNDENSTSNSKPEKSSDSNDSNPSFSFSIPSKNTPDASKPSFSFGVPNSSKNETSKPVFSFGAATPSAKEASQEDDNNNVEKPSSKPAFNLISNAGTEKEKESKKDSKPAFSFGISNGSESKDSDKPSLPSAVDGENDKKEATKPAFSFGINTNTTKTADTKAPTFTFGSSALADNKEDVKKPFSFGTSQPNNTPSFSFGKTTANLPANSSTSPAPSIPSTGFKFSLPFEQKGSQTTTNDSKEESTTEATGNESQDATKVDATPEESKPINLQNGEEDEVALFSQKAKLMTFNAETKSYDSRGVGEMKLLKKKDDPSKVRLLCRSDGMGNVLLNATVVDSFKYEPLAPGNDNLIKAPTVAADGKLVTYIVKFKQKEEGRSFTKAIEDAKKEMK
UniProt P52593: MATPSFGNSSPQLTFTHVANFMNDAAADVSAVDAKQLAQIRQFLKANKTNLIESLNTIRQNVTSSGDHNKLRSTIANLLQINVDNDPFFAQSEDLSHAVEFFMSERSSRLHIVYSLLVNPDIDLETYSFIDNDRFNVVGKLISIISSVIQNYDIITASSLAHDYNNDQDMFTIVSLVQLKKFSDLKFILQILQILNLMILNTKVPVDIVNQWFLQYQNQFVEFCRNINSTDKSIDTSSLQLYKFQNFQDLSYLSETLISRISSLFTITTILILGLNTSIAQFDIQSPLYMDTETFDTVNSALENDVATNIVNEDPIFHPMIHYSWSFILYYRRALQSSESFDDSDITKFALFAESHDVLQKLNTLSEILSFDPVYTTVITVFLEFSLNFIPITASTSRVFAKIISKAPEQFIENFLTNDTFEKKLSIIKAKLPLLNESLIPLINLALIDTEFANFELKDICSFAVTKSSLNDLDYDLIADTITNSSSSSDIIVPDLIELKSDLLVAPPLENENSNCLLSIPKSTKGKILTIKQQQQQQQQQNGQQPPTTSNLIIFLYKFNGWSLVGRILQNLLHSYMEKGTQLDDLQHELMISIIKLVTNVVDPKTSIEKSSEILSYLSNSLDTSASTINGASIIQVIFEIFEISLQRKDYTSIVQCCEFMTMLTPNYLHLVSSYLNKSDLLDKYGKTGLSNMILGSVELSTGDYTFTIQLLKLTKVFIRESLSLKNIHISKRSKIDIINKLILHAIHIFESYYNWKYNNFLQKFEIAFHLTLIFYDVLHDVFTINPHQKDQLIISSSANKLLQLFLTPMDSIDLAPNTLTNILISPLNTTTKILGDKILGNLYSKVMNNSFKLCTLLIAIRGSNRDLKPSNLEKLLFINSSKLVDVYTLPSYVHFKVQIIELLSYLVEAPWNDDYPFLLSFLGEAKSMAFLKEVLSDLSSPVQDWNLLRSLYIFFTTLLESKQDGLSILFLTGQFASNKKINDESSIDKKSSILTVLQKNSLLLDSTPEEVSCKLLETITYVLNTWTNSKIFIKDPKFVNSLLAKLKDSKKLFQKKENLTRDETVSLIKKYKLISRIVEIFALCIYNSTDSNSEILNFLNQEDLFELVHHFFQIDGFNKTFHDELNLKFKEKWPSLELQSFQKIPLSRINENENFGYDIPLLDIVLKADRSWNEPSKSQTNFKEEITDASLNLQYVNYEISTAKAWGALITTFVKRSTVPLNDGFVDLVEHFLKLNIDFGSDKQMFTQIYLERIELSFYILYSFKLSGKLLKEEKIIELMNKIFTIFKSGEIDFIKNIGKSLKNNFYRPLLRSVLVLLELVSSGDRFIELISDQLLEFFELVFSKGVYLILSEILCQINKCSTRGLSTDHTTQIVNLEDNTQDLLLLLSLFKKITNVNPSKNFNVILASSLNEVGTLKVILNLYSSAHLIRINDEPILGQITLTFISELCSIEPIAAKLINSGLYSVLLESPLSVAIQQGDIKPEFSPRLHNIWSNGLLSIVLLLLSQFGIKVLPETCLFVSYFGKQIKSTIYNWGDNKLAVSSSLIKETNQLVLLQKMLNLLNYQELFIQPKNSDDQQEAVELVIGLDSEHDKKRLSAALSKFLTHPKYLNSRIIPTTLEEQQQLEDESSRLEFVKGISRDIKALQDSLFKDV
UniProt P40368: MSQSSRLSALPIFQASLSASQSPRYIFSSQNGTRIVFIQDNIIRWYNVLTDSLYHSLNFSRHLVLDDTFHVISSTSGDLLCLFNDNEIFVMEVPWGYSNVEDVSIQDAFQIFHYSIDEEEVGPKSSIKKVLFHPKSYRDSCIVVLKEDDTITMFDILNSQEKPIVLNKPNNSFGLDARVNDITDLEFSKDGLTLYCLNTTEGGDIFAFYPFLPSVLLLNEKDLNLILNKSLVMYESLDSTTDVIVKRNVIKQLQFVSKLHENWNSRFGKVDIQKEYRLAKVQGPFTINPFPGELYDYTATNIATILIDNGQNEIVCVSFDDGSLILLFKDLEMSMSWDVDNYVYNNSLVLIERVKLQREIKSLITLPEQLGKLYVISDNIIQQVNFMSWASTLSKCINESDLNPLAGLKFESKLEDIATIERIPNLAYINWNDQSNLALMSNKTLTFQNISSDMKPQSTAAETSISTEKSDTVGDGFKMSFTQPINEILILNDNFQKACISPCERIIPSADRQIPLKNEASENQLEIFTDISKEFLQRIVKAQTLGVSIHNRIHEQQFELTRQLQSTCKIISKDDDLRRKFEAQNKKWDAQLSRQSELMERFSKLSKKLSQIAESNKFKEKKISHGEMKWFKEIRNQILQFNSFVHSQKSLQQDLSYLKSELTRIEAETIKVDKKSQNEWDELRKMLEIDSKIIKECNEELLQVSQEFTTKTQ
UniProt P52891: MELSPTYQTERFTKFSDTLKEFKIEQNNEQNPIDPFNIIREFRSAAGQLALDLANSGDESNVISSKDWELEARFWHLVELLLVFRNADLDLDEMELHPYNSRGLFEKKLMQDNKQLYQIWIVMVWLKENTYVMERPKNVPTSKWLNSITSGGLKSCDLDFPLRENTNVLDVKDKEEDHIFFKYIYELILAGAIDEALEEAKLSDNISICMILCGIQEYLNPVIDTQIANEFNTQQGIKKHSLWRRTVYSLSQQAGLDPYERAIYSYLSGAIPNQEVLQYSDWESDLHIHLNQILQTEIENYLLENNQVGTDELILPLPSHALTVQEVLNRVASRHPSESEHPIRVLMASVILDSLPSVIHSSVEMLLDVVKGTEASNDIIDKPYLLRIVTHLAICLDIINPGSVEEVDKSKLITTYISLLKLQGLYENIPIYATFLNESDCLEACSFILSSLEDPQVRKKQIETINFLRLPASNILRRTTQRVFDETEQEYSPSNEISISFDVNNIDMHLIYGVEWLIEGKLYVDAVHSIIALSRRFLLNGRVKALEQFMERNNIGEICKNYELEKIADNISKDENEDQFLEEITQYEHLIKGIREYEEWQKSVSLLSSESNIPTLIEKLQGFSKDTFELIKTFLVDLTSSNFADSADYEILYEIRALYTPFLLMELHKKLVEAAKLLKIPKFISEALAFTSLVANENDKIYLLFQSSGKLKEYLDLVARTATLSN

Test [1] addresses T1, GST-Hog1 (S. cerevisiae) (UniProt P32485).
T1 sequence: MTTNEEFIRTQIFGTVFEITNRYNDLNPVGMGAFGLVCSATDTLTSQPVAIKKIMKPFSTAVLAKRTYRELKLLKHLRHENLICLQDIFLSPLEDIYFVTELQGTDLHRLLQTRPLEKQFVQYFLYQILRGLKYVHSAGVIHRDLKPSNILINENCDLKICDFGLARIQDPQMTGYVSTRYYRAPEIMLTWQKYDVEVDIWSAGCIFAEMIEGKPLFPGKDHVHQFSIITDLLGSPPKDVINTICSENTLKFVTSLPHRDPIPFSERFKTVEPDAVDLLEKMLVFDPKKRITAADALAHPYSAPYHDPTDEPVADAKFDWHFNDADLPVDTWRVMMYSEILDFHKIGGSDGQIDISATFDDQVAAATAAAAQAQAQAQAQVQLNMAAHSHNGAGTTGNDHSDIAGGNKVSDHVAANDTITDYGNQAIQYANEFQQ
Description: pull-down; GST or GST-Hog1 pulled down on glutathione-Sepharose from extracts of yeast treated with 0.4 M NaCl for 10 min; 2 mg cleared extract, overnight at 4 °C, buffer A (50 mM Tris-HCl pH 7.5, 150 mM NaCl, 0.1% Triton X-100); TAP-tagged proteins detected with PAP antibody.

Test [2] deals with T1, GST-Hog1 (S. cerevisiae). The test is described as follows: pull-down; GST pulldown of GST-Hog1 from yeast expressing Nup2-HA or Nup60-HA; HA-tagged proteins detected (Fig. 5B, left panels).
A further test deals with Nup60-HA (S. cerevisiae) (UniProt P39705). Description: co-IP; HA pulldown (immunoprecipitation) of Nup2-HA or Nup60-HA from yeast expressing GST-Hog1; Hog1 detected (Fig. 5B, right panels).
Another test concerns the target Nup2-HA (S. cerevisiae) (UniProt P32499). The description is as above.

No constants are given. Whether binding was seen depends on the method and setting. In cells and extracts the contact can be indirect. Some results given as binding are weak or reduced against the parent protein; the word gives no strength. Tags and fused reporters may be left off the sequences shown.

As for “TAP-tagged Nup188 (from UniProt P52593 1-1655)”, in the test with GST-Hog1 (S. cerevisiae) [1], the binding entry was “binds”.
Nup2-HA (from UniProt P32499 1-720): in the test with GST-Hog1 (S. cerevisiae) [2], the binding entry is recorded as “binds”.
Turning to Nup60-HA (from UniProt P39705 1-539), the binding entry with GST-Hog1 (S. cerevisiae) [2] is “binds”.
Consider “TAP-tagged Nup2 (from UniProt P32499 1-720)”, for which, in the test with GST-Hog1 (S. cerevisiae) [1], the binding result is given as “binds”.
On the same count and under the same terms, then “TAP-tagged Nup60 (from UniProt P39705 1-539)”, with “binds”.
In the case of “TAP-tagged Nup82 (from UniProt P40368 1-713)”, the binding result in the test with GST-Hog1 (S. cerevisiae) [1] is listed as “binds”.
Regarding “TAP-tagged Nup84 (from UniProt P52891 1-726)”, the binding result with GST-Hog1 (S. cerevisiae) [1] is reported as “binds”.

B1: GST-Hog1 (enzyme, UniProt P32485 1-435)
chain: T1 sequence
B1: the binding result in the test with Nup60-HA (S. cerevisiae) and in the test with Nup2-HA (S. cerevisiae) was “binds” throughout.
